According to the supplement of paper PMC10849652:
This is one part of the list.

By UniProt entry, the sequences of proteins in these tests, tags left out. Where a name states a change or a piece, a line headed by the entry shows the natural chain unless it says otherwise.
UniProt Q9BXJ9: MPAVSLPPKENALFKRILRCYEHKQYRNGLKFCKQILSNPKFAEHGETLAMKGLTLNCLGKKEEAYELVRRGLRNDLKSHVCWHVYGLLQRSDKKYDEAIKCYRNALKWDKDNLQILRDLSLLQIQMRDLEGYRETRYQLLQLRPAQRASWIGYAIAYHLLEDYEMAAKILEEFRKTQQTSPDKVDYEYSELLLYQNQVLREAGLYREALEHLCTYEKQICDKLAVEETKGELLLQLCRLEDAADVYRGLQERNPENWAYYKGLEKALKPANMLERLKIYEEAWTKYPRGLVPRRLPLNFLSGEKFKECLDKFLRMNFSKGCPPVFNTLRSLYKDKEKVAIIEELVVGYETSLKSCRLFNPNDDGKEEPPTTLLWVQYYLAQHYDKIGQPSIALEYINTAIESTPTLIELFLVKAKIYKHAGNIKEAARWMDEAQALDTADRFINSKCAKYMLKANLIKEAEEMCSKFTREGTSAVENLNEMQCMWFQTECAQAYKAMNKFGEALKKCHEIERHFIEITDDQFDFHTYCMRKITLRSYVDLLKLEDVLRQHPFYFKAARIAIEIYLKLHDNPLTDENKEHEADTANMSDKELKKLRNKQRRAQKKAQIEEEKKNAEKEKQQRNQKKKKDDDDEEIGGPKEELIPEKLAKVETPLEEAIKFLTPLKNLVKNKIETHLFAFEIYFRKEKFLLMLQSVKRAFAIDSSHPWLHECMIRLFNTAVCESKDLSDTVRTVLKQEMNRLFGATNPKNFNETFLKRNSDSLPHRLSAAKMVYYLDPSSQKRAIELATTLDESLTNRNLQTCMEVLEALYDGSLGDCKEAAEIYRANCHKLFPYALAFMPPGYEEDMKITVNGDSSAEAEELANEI
UniProt P56181: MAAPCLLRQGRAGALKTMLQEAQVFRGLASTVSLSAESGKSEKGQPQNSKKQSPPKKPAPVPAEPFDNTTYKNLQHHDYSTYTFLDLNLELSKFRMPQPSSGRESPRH
UniProt Q9BSU3: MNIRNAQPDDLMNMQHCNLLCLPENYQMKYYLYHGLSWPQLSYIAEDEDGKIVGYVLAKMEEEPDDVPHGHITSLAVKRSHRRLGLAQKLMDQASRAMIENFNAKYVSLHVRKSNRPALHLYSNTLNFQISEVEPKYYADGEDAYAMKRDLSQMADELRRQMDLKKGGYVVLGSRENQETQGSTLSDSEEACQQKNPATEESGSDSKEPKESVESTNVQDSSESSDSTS
UniProt Q09161: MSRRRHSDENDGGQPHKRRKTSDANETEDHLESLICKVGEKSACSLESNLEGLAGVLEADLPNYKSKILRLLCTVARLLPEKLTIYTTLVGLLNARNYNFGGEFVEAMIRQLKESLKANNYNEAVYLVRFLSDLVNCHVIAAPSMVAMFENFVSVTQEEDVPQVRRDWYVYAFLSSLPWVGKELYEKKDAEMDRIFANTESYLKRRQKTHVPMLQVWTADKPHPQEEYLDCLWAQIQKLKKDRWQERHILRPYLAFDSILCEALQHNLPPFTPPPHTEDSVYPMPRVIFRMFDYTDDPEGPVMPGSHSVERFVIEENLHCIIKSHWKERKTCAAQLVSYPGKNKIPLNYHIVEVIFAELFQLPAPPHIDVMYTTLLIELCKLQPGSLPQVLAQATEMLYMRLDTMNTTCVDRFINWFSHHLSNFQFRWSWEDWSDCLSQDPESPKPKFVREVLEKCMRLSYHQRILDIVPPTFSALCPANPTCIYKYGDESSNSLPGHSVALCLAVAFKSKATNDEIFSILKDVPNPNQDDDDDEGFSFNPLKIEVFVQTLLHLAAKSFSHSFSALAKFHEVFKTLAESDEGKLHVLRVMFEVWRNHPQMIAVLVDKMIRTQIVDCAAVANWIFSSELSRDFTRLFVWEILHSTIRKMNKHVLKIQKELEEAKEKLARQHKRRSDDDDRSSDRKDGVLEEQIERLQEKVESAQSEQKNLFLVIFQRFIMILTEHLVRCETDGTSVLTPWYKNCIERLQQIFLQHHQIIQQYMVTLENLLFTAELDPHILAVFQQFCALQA
UniProt Q9UBB6: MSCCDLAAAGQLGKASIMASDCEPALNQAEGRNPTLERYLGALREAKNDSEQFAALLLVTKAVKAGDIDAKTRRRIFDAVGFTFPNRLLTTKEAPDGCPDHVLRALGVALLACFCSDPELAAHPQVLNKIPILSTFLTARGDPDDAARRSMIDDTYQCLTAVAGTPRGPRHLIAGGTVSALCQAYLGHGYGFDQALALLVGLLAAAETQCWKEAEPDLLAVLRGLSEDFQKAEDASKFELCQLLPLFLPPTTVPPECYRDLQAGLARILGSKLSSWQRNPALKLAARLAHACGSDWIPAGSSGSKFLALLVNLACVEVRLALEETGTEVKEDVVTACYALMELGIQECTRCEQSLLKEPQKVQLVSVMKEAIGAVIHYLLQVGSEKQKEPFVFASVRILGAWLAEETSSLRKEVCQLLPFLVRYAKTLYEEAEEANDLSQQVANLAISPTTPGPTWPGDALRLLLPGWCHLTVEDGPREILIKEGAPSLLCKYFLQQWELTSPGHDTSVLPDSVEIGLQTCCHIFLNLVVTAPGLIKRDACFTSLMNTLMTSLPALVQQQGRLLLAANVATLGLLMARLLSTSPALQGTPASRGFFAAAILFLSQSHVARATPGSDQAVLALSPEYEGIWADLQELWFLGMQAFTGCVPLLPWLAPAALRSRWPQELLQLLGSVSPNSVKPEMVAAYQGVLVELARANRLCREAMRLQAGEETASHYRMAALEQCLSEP
UniProt Q969V3: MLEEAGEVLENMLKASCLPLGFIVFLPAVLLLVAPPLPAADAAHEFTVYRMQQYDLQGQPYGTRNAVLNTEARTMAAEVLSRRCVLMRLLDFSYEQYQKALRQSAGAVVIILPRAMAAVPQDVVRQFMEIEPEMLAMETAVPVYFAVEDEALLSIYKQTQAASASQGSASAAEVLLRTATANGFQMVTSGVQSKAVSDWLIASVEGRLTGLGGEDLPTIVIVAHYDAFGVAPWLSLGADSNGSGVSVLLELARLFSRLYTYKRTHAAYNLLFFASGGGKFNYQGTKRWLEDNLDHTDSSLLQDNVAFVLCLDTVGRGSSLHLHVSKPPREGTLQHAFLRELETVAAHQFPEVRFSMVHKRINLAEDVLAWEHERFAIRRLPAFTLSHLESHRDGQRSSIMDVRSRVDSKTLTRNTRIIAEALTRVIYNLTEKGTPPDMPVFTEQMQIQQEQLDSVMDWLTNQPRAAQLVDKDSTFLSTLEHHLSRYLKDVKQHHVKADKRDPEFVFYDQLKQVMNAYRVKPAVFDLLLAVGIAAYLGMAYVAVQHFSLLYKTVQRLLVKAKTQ
UniProt Q147X3: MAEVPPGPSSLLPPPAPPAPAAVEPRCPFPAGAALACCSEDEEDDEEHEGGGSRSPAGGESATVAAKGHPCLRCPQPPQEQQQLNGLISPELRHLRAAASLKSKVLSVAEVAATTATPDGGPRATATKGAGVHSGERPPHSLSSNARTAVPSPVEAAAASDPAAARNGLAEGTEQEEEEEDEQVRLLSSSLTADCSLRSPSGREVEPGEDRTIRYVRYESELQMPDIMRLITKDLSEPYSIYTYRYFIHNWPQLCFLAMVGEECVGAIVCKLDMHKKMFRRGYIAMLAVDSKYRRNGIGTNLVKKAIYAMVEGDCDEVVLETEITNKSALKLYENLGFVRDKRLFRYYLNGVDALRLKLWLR
UniProt Q9NVZ3: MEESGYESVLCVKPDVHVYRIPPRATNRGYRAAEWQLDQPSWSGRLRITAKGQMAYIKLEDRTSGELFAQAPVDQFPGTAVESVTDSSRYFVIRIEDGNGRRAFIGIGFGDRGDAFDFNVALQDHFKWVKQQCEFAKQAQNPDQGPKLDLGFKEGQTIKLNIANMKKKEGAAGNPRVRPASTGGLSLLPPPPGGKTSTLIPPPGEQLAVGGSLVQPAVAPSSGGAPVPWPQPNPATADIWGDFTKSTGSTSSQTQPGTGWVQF
UniProt P49321, whole entry, looked up: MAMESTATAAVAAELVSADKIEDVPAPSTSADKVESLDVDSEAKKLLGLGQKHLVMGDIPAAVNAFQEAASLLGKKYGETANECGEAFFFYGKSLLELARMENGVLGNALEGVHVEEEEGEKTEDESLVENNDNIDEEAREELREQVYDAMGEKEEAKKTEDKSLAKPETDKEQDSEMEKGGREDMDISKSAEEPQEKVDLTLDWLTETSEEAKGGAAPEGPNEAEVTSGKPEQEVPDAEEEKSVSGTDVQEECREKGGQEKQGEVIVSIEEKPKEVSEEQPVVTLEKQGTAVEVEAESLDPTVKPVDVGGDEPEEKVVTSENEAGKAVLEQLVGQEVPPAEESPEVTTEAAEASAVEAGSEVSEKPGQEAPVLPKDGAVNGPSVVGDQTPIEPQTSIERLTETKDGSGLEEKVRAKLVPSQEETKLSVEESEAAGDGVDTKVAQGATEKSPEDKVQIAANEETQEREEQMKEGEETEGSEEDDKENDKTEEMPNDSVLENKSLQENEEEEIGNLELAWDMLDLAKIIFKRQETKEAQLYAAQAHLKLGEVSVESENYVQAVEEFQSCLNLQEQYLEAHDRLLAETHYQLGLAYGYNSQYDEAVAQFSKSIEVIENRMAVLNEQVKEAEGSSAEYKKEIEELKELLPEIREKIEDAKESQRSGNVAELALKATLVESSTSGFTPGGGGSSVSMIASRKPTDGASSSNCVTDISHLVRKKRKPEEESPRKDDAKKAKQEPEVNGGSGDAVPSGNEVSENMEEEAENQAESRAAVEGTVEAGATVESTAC
UniProt Q9BT67: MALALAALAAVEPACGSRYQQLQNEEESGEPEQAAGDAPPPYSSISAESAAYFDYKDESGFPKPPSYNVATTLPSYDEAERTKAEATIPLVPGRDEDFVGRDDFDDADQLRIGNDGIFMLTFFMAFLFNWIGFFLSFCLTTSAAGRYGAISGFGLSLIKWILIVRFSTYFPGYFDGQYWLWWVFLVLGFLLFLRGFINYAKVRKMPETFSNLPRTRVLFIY
UniProt Q6PIU2: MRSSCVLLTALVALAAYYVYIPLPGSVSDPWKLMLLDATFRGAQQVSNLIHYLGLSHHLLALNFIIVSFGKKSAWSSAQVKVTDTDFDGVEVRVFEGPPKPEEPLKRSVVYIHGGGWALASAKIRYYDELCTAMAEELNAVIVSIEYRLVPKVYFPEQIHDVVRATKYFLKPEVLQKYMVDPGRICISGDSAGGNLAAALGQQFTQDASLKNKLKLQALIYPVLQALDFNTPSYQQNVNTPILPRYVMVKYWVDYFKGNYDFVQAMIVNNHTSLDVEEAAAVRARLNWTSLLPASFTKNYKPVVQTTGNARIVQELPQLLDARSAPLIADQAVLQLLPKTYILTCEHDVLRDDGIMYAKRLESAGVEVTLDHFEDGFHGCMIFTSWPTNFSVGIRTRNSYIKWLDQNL
UniProt Q6XQN6: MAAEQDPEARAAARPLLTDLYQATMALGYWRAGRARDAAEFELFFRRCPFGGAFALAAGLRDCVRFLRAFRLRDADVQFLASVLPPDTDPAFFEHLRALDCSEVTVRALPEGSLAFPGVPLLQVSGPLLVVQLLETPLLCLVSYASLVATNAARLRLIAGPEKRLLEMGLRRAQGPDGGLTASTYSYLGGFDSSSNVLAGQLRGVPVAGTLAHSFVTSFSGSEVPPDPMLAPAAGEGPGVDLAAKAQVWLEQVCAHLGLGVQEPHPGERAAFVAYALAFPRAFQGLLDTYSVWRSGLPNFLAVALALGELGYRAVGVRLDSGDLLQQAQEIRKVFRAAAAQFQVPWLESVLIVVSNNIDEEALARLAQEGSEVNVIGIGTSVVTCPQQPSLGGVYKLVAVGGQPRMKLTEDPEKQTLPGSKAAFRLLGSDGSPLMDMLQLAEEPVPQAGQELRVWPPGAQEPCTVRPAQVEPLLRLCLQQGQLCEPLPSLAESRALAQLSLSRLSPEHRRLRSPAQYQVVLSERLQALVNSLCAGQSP
UniProt B2RBV5: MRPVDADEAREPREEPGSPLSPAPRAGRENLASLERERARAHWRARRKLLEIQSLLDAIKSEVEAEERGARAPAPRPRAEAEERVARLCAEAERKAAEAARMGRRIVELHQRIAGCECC
UniProt Q96HR8: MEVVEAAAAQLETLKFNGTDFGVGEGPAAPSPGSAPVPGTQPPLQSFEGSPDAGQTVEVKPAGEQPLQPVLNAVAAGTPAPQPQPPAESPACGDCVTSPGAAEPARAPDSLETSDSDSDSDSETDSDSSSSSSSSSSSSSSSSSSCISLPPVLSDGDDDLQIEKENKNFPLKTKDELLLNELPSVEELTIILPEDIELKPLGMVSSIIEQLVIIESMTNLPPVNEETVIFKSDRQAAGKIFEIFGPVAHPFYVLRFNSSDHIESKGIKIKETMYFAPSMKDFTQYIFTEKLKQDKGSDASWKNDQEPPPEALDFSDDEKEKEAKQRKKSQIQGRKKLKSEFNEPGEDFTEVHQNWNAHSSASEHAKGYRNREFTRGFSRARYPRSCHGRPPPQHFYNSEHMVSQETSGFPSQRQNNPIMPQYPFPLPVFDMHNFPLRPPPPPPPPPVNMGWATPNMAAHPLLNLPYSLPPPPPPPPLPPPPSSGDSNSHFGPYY

How the values were obtained:
Test in all cases: log2 fold change, soluble protein after heating vs DMSO (PISA); higher = thermal stabilisation; K562 cells, 10 uM, 30 min; active = over 0.2 and 3.5 SD of the protein, either way, in both replicates (recomputed)
[1] = compound: C1=CC=C(C=C1)[C@H](COC2=CC3=C(C=C2)NC(=O)N3)NC(=O)C4=CC=CN(C4=O)CC5=CC(=C(C=C5)F)F
How it was run: (§1)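 K562 cells at 2×10^6 cells/mL were treated with 10 μM compound for 30 min. Aliquots were heated for 3 min across 48°C-58°C, pooled, and extracted in PBS with 0.5% NP-40 at 4°C; soluble protein was the supernatant after 21,000xg for 90 min. Soluble protein was quantified by TMTpro 16plex LC-MS/MS with channel sums equalised, and reported as log2 fold change in thermal stability against DMSO controls, with values from duplicates.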

[2] = compound: CC1=C(SC2=C1C(=N[C@H](C3=NN=C(N32)C)CC(=O)N)C4=CC=C(C=C4)Cl)C
How it was run: as §1

[3] = compound: CC1=C2C(=CC=C1)N=C(N(C2=O)C3=CC=CC=C3C)CN4C=NC5=C(N=CN=C54)N
How it was run: as §1

[4] = compound: Cc1sc2c(c1C)C(c1ccc(Cl)cc1)=N[C@@H](CC(=O)OC(C)(C)C)c1nnc(C)n1-2
How it was run: as §1

[5] = compound: c1ccc([C@@H]2C[C@H]2NC2CCNCC2)cc1
How it was run: as §1

Measured: log2 fold change

NAA15 (UniProt Q9BXJ9)
inactive: [1] -0.002 | [2] 0.022 | [3] 0.009 | [4] -0.022 | [5] -0.034

NDUFV3 (UniProt P56181)
inactive: [1] 0.017 | [2] 0.069 | [3] -0.022 | [4] -0.103 | [5] 0.052

NA, A0A494C071
inactive: [1] -0.172 | [2] -0.016 | [3] 0.236 | [4] 0.07 | [5] 0.072

NAA11 (UniProt Q9BSU3)
inactive: [1] 0.009 | [2] 0.042 | [3] 0.049 | [4] -0.12 | [5] -0.049

NCBP1 (UniProt Q09161)
inactive: [1] -0.015 | [2] 0.028 | [3] 0.089 | [4] 0.014 | [5] -0.013

NCDN isoform 3 (UniProt Q9UBB6)
inactive: [1] -0.077 | [2] 0.021 | [3] 0.076 | [4] -0.023 | [5] -0.014

NA, A0A0B4J2A0
inactive: [1] -0.035 | [2] -0.005 | [3] 0.015 | [4] -0.097 | [5] -0.007

NCLN (UniProt Q969V3)
inactive: [1] 0.02 | [2] -0.003 | [3] -0.012 | [4] 0.033 | [5] -0.001

NAA30 (UniProt Q147X3)
inactive: [1] -0.041 | [2] -0.001 | [3] 0 | [4] 0.013 | [5] -0.012

NECAP2 (UniProt Q9NVZ3)
inactive: [1] -0.031 | [2] 0.017 | [3] 0.056 | [4] 0 | [5] -0.014

NDUFAF4 (UniProt Q9P032)
inactive: [1] 0.003 | [2] 0.043 | [3] 0.037 | [4] -0.008 | [5] 0

NDUFA9 (UniProt Q16795)
inactive: [1] -0.005 | [2] 0.075 | [3] 0.078 | [4] -0.014 | [5] -0.054

NASP (UniProt P49321)
inactive: [1] -0.009 | [2] 0.049 | [3] 0.054 | [4] -0.022 | [5] 0.013

NDFIP1 (UniProt Q9BT67)
inactive: [1] 0.035 | [2] -0.162 | [3] -0.076 | [4] -0.111 | [5] 0.052

NCEH1 isoform 2 (UniProt Q6PIU2)
inactive: [1] -0.004 | [2] 0.095 | [3] 0.054 | [4] -0.043 | [5] 0.004

NARS1 (UniProt O43776)
inactive: [1] -0.01 | [2] -0.035 | [3] -0.049 | [4] 0.012 | [5] 0.017

Pulled one by one from above (2):
NCEH1 isoform 2 (UniProt Q6PIU2)
inactive: [1] -0.004 | [2] 0.095 | [3] 0.054 | [4] -0.043 | [5] 0.004

NASP (UniProt P49321)
inactive: [1] -0.009 | [2] 0.049 | [3] 0.054 | [4] -0.022 | [5] 0.013

Remaining list, next part:

NDRG2 (UniProt G3V392)
inactive: [1] -0.268

NAPRT (UniProt Q6XQN6)
inactive: [1] -0.002 | [2] -0.003 | [3] 0.053 | [4] 0.016 | [5] 0.023

NDUFAB1 (UniProt O14561)
inactive: [1] 0.022 | [2] -0.034 | [3] 0 | [4] -0.033 | [5] 0.072

NBN (UniProt O60934)
inactive: [1] 0.002 | [2] 0.032 | [3] 0.036 | [4] -0.004 | [5] -0.001

NA (UniProt J3KR12)
inactive: [1] -0.042

NBAS (UniProt A2RRP1)
inactive: [1] 0.078 | [2] -0.137 | [3] -0.033 | [4] 0.11 | [5] -0.094

NA (UniProt B2RBV5)
inactive: [1] 0.002

NAF1 (UniProt Q96HR8)
inactive: [1] 0.032 | [2] -0.001 | [3] -0.087 | [4] -0.011 | [5] -0.009

NEDD4L (UniProt Q96PU5)
inactive: [1] 0.014 | [2] 0.038 | [3] 0.039 | [4] 0.054 | [5] 0.027

NCOR1 (UniProt O75376)
inactive: [1] -0.102 | [2] 0.06 | [3] 0.002 | [4] 0.016 | [5] -0.111

NDUFAF1 (UniProt Q9Y375)
inactive: [1] 0.084 | [2] 0.02 | [3] 0.092 | [4] 0.028 | [5] 0.043
